Results are given in words; binding and its absence hold for the method and conditions named. Binding seen in cells or lysates may run through a third protein. Here binding means that the protein was enriched with, or labelled near, the bait; the list need not be complete. Tags and fused reporters may be left off the sequences shown. Blank lines part the entries; values can stand above or below the binder they belong to.
Molecular target: T1, 6HIS-HA-JHD2 (S. cerevisiae) (UniProt P47156)
T1 sequence: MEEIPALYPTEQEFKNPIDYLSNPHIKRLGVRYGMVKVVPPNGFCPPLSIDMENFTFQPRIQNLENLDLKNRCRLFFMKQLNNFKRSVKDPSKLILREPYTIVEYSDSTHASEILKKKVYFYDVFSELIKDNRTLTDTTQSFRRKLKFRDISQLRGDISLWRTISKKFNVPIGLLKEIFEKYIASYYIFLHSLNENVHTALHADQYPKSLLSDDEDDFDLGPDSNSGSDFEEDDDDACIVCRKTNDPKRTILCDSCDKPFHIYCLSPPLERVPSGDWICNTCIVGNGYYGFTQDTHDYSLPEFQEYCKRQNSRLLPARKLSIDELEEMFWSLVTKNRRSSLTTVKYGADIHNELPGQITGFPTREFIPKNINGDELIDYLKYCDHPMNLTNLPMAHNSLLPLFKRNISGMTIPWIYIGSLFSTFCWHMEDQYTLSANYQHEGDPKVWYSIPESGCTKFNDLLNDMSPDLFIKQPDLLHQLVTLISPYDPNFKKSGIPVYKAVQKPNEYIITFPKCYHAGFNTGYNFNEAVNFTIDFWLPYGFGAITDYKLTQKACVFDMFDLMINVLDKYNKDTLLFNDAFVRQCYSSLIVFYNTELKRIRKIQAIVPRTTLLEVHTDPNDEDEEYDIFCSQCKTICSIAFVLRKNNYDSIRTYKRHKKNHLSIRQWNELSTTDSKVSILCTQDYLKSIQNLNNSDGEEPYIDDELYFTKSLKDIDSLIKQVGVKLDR
Test: affinity purification with mass spectrometry; whole cell extracts of a wild-type strain with 6HIS-HA-JHD2 induced from the GAL1 promoter for 6 hours; Ni-NTA agarose and anti-HA agarose beads at 4°C for 24 hours; proteins found with the empty vector strain excluded

B1: KIC1 (protein, UniProt P38692 1-1080)
chain: MTTKPQNSKQGLAEGEMDVSSLFKRTEVIGRGKFGVVYKGYNVKTGRVYAIKVLNLDSDSDEVEDVQREIQFLASLKQISNITRYYGSYLKDTSLWIIMEHCAGGSLRSLLRPGKIDEKYIGVIMRELLVALKCIHKDNVIHRDIKAANVLITNEGNVKLCDFGVAAQVNQTSLRRQTMAGTPYWMAPEVIMEGVYYDTKVDIWSLGITTYEIATGNPPYCDVEALRAMQLIIKSKPPRLEDRSYSTSLKEFIALCLDEDPKERLSADDLLKSKFIRAHKATPTSILKELISRYLLFRDKNKNKYKIEGSIPENEPSKPSEAPKPSQNGGGDEAQKSIASNDNEIKRVNEGDVEMKWDFDSLSSSDYIIENNINLDALAEDNNEWATAQHDLFNYAYPDEDSYYFDPTSHNTRPFVYQGTTIGKGYPGTIAQNSTLNAPVTNNYTNSKYPSKMVAGTTNTSGTHTAGPMTSSKRLESKAPKQLLELFEDNEIITAENDVNTEAPKISKSISSLNAGNSSRDDFIPSISNEVNGNINNNKMRPHLPPLSSGNNYYSQSTPALPLLQTKFNKTSKGPPTSGLTTAPTSIEIEIPEELPNSALPTPASADPVLIPSTKARSSTVTAGTPSSSSSIQYKSPSNVPRRLTVSNNRPEHCPSTITNQKLGSAVASNSGISSTPNNSNNYNNNTDSENSRGSSGSNTANSTQMGITNPGNVTKLSTHKASSPSRPLFGVGTSPNRKPAGSPTQNIGHNSTHTNLAPPPTMKPMANSKDNKDILLQPLNSIPSSSTLNTISGNSSNNLTSSNYFSNEKEGSRVNGDFKRNNPNLKLQMPLPTPVVRNKLLDPNTATSQNNNGMPGSAGISTNENINQFGFNTSSASNIPVSMTPISEKHIDFGGKIKRSQSISNRKNSSASEHPLNILGSSVSGNVSGIGNNNVGSNNNSGPNNSVPLSANTGNTTIKANSTTIATSSSAAASTTAPISQQTIPSGTQFNHILSSAATAANSVNSLGFGMCPPPQSLQMEMFLDLESFLPGKQRRVDRKPQVLKELENLLQMFEEGLPCIEHALKEQLISTPIKDNEH
binding: binds

B4: KIN4 (protein, UniProt Q01919 1-800)
chain: MASVPKRHTYGGNVVTDRDRHSLQRNNEILHPIHKNQRKHATFGPYIIGSTLGEGEFGKVKLGWTKASSSNEVPKQVAIKLIRRDTIKKDADKEIKIYREINALKHLTHPNIIYLEEVLQNSKYIGIVLEFVSGGEFYKYIQRKRRLKESSACRLFAQLISGVNYMHYKGLVHRDLKLENLLLDKHENLVITDFGFVNEFFEDNELMKTSCGSPCYAAPELVVSTKAYEARKADVWSCGVILYAMLAGYLPWDDDHENPTGDDIARLYKYITQTPLKFPEYITPIPRDLLRRILVPNPRRRINLQTIKRHVWLKPHEAFLSIQPNYWDEHLQKERPKPPNKGDVGRHSTYSSSASSYSKSRDRNSLIIESTLEQHRMSPQLATSRPASPTFSTGSKVVLNDTKNDMKESNINGERTSASCRYTRDSKGNGQTQIEQVSARHSSRGNKHTSVAGLVTIPGSPTTARTRNAPSSKLTEHVKDSSQTSFTQEEFHRIGNYHVPRSRPRPTSYYPGLSRNTADNSLADIPVNKLGSNGRLTDAKDPVPLNAIHDTNKATISNNSIMLLSEGPAAKTSPVDYHYAIGDLNHGDKPITEVIDKINKDLTHKAAENGFPRESIDPESTSTILVTKEPTNSTDEDHVESQLENVGHSSNKSDASSDKDSKKIYEKKRFSFMSLYSSLNGSRSTVESRTSKGNAPPVSSRNPSGQSNRSNIKITQQQPRNLSDRVPNPDKKINDNRIRDNAPSYAESENPGRSVRASVMVSTLREENRSELSNEGNNVEAQTSTARKVLNFFKRRSMRV
binding: binds

B5: SPC29 (protein, UniProt P33419 1-253)
chain: MDYSNFGNSASKKFQDDTLNRVRKEHEEALKKLREENFSSNTSELGNKKHYRAQERMSSPLHRLSPTGKSDDRKVKSPLDDKLRRQLREGNTRLPPPPFSSYGMPPTNRSNLDRIRRRTSSPVRTDKFASQNVIDDQRLEIKYLERIVYDQGTVIDNLTSRITRLESFILNSISDRGDKNFASLEHSRSFSGFPTNKTYGLQMGGLYENDMPYRRSSDNINKEGAREDRSSQIHIENESTEDILKILSSSFHN
binding: binds

More lines, now with the values ahead:

binding: binds
B2: SPC72 (protein, UniProt P39723 1-622)
chain: MVRRWIPSGRHLRNNDNTGDDDDSEFTNSMDSGMSIPSLRDSMTTRSSHNDPIKPALMNDSNKVKNLEKELTNAKIKIQVLYEYIRRIPNKDGNAPSLGNDTDFRNSIIEGLNLEINKLKQDLKAKEVEYQDTLQFVQENLENSESIVNTINHLLSFILTHFNEQDENAHLLDKEERETLEETLELSSDYVLEKMDTLSKFIIQFLQDFLHSKSRAESKQDKEEFLSLAQSSPAGSQLESRDSPSSKEENTDGGYQNDEIHDSNNHIDTENVMANSTSLPISAVESRFEKTLDTQLEIVIENLHKEYDQFINSIRLKFEKSQKLEKIIASKLNEQSHLLDSLELEENSSSVIEKQDHLISQLKEKIESQSVLINNLEKLKEDIIKMKQNEKVLTKELETQTKINKLKENNWDSYINDLEKQINDLQIDKSEEFHVIQNQLDKLDLENYQLKNQLNTLDNQKLILSQYESNFIKFNQNLLLHLDSIFNILQKILQESSIAQFDRKMKSIKSVPNALKNLNLIQPKLESLYTFIETALESIINSYISSLISMETPEQPHQQGNELTATPNKELTLRIEELQRRWISERERRKLDANASEARIKALEQENESLRSKLFNLSINNP

binding: binds
B3: SPC42 (protein, UniProt P36094 1-363)
chain: MNGSPTPKRYSSKSSRLYDDYYNIPYQYSNPTPMNRDYNDVGSRINADKLVPEEYKRNTEFINKAVQQNKELNFKLREKQNEIFELKKIAETLRSKLEKYVDITKKLEDQNLNLQIKISDLEKKLSDANSTFKEMRFPKVKDPMVDDDPVSENYDQINVPKHRAPDATGNPRTTNKVSNTSDQDSRLKAIERTLSVLTNYVMRSEDGNNDRMSPLPSPLNTILPINNRLNFQEPKRYNPTVKVNPSDDDIMMYESAELKRVEEEIEELKRKILVRKKHDLRKLSLNNQLQELQSMMDGDDNIKLDNVSKHNHATHRHSSQSSRDYSPSSDACLECSNDLYEKNRVKPENNMSETFATPTPNNR

binding: binds
B6: SPC110 (protein, UniProt P32380 1-944)
chain: MDEASHLPNGSLKNMEFTPVGFIKSKRNTTQTQVVSPTKVPNANNGDENEGPVKKRQRRSIDDTIDSTRLFSEASQFDDSFPEIKANIPPSPRSGNVDKSRKRNLIDDLKKDVPMSQPLKEQEVREHQMKKERFDRALESKLLGKRHITYANSDISNKELYINEIKSLKHEIKELRKEKNDTLNNYDTLEEETDDLKNRLQALEKELDAKNKIVNSRKVDDHSGCIEEREQMERKLAELERKLKTVKDQVLELENNSDVQSLKLRSKEDELKNLMNELNELKSNAEEKDTQLEFKKNELRKRTNELNELKIKSDEMDLQLKQKQNESKRLKDELNELETKFSENGSQSSAKENELKMLKNKIAELEEEISTKNSQLIAKEGKLASLMAQLTQLESKLNQRDSQLGSREEELKKTNDKLQKDIRIAREETVSKDERIIDLQKKVKQLENDLFVIKKTHSESKTITDNELESKDKLIKILENDLKVAQEKYSKMEKELKEREFNYKISESKLEDEKTTLNEKISNLAAENSQLKNKIEDNSTATHHMKENYEKQLESLRKDIEEYKESAKDSEDKIEELKIRIAENSAKVSEKRSKDIKQKDEQISDLTQNLKLQEDEISSLKSIIDRYKKDFNQLKSEQSNIQHDLNLQILNLENKLIESEDELKSLRDSQKIEIENWKRKYNNLSLENDRLLTEKESASDKEREISILNRKLDEMDKEKWNLQESKEKYKRELQKVITANDRLRREKEELNENSNNIRIMEDKMTRIKKNYLSEITSLQEENRRLEERLILNERRKDNDSTMQLNDIISYYKLKYHSEVRHNNDLKVINDYLNKVLALGTRRLRLDTRKGEHSLNISLPDDDELDRDYYNSHVYTRYHDYEYPLRFNLNRRGPYFERRLSFKTVALLVLACVRMKRIAFYRRSDDNRLRILRDRIESSSGRISW
